Results as given in US10745731B2, “Recombinant production method” (Hoffmann-La Roche Inc., priority 2015, dated 2020).
For at least one compound, name, drawing or mass did not settle the structure.

Experiments:
HEK293F cells = test: Transient gene expression in HEK293F cells: cell specific productivity of the expressed antibody; assay type: cell-based, human; details: in words
Protocol: HEK293F cells were cultivated in F17 medium (Life Technologies) in shaker flasks at 36.5° C., 7.0% CO2 and 80% humidity in a shaker incubator (Kuhner, Mytron). Cells were split every three to four days and were cultivated no longer than five weeks. To avoid overgrowth and to keep them in the exponential phase of growth, viable cell densities (VCD) never exceeded 60*10^5 cells/mL.
Transient gene expression is a 5-7 days lasting procedure. The standard operating procedure of this expression system is applicable to shaker flasks with various volumes of cell culture ranging from 80 mL to 2 L. First, half of the cell culture volume is seeded at a viable cell density (VCD) of 8*10^5 cells/mL. […]
To co-transfect two plasmids equimolarily, the ratio of the base pair number of one plasmid to the total base pair number was calculated and multiplied with the total amount of DNA (0.5 mg/L). […]
80 mL of the transfected cell culture batch was added to a 125 ml shaker flask. […] Basal protein expression was determined by untreated control samples. […]
To determine cell viability and viable cell density (VCD) 1 mL cultivation medium (cell suspension) was transferred into a Cedex low fouling sample cup. […] After analysis of 50 images VCD was calculated and viability was determined by calculation of the percentage of viable cell number in relation to the total cell number. […]

HDAC = details: description from the literature; cited from earlier work

Compound	effect on TGE enhancement (HEK293F cells)	HDAC class / isoform selectivity (HDAC)
C/C=C1\NC(=O)[C@H]2CSSCC/C=C/[C@H](CC(=O)N[C@H](C(C)C)C(=O)N2)OC(=O)[C@H](C(C)C)NC1=O [Romidepsin]	strong effect	
CCC(=O)CCCCC[C@@H]1NC(=O)[C@H]2CCCCN2C(=O)[C@H]([C@@H](C)CC)NC(=O)[C@H](Cc2cn(OC)c3ccccc23)NC1=O [apicidin, Apicidin]		potent class I HDAC inhibitor with highest affinity towards HDAC 2 and HDAC 3
